The target in the experiment is Hydra Sp5, HA-tagged (HySp5) (Hydra vulgaris). In words: co-IP.

These are yes or no findings as the source states them, for the method shown. In cells and extracts the contact can be indirect. Binding can be weak; no strength is given.

Regarding “human TCF-1 (huTCF-1) (from UniProt P36402 1-384)”, the binding entry is “binds”. Consider “constitutively active human β-catenin (pFLAG-CMV-human-β-cateninΔ45) (from UniProt P35222 1-781)”, for which the binding entry is listed as “binds”. The same measure for “endogenous TCF-1 (HEK293T) (from UniProt P36402 1-384)”: “binds”.

(Values after paper doi:10.1101/265785.)
